Among the data in patent publication US5733881A (Astra AB, priority 1994, dated 1998) are isolated mass values, retold here.

Non-standard residues stand in square brackets, D forms with d. Tic = O=C(O)[C@@H]1Cc2ccccc2CN1; Cha = N[C@@H](CC1CCCCC1)C(=O)O

The nature of this series: general procedure: Boc solid-phase peptide synthesis; Boc-Phe-O-resin; DCC/HOBt, DIC/HOBt or BOP. The note with it: whole synthesis, scale 1 g resin, 0.61 mmol/g.

In turn, H-Y[Tic][Cha]F-OH came in with an isolated mass of 45 mg.
